Negatives hold for the conditions tested.
Target: human serum albumin (HSA) (human) (UniProt P02768)
Experiment: colorimetric AuNP/CTAB aggregation assay (A650/A520)
Details: 1 uM protein, 4 nM CTAB; 20 mM HEPES pH 7.4, room temperature, 20 nM aptamer with protein 20 min, then 4 nM CTAB 20 min, then AuNPs 5 min (200 uL final); commercial protein; single-stranded DNA

“GTTCGATTGGATTGTGCCGGAAGTGCTGGCTCGAAC [pL1 aptamer]”: no binding.

Source: PMC4081113
